Measured values from paper PMC6541591.
These are yes or no findings as the source states them, for the method shown. In cells and extracts the contact can be indirect. Some entries that bind do so weakly or less than the wild type. One block for each substance: values may come before it.

Chains of the proteins cited; added tags and fusions are not shown. Residues count along the entry.
UniProt Q9UM73, residues 19-1620: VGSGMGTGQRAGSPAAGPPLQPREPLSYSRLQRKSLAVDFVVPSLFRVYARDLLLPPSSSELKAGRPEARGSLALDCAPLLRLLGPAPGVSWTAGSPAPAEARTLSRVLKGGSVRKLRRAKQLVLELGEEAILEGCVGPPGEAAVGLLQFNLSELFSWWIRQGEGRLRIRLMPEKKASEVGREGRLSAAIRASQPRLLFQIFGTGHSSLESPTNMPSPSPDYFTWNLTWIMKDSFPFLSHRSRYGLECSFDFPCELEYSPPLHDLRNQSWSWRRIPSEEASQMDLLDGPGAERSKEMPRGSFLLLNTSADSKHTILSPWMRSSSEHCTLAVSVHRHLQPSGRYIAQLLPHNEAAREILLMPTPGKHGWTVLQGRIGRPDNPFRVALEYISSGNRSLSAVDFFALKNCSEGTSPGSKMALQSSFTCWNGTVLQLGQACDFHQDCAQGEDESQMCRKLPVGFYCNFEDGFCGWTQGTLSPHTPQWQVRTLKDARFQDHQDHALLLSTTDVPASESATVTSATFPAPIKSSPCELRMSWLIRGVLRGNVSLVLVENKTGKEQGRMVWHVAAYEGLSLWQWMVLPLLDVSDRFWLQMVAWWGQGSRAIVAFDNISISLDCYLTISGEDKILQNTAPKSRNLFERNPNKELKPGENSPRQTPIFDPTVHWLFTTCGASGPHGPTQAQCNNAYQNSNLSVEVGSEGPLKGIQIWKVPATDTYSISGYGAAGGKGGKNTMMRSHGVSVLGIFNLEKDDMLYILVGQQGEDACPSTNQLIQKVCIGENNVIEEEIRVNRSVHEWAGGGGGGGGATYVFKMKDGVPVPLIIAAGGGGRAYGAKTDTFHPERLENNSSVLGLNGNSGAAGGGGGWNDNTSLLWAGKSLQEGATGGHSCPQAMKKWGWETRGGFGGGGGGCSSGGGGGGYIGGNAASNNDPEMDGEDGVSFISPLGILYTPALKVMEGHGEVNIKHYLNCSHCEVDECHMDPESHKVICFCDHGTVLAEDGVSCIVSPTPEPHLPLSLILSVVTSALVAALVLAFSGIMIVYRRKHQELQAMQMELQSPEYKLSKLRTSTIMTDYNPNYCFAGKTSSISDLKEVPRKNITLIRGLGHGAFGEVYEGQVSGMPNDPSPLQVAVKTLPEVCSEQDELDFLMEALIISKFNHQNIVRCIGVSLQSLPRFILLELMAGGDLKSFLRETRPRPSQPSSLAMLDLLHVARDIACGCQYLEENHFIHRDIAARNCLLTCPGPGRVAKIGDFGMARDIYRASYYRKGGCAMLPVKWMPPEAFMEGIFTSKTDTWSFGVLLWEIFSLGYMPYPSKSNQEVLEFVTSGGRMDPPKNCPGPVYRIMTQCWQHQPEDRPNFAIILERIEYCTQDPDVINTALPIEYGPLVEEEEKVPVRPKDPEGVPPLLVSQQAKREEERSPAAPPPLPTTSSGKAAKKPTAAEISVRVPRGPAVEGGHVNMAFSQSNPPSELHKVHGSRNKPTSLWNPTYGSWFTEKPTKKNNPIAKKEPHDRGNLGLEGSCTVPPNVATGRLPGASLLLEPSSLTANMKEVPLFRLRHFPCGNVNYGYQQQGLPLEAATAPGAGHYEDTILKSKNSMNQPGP
UniProt Q8N9U0: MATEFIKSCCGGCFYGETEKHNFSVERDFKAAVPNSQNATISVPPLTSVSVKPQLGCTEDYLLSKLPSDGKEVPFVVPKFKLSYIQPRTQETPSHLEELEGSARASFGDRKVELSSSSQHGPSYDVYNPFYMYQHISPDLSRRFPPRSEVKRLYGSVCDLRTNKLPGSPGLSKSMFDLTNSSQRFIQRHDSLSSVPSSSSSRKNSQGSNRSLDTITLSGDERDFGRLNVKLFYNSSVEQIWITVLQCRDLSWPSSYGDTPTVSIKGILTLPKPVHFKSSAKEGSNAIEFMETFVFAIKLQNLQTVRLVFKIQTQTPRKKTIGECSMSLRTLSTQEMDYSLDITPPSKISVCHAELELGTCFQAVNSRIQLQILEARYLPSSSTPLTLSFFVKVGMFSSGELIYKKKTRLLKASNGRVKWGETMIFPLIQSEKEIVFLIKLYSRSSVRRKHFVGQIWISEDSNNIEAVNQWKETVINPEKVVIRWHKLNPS

Key:
[1] = target: p55γ subunit of PI3K (human (endogenous in MCF7 and MDA-MB-231)) (UniProt Q92569); test: co-IP; competitive co-IP: lysates of stably transfected MCF7 and MDA-MB-231 cells with or without TC2N overexpression, IP with p55γ or ALK antibodies, WB with ALK or p55γ antibodies; normal IgG as negative control
[2] = target: ALK (human (endogenous in MCF7 and MDA-MB-231)) (UniProt Q9UM73); test: co-IP; co-IP and WB from cell lysates (IP lysis buffer, Pierce Co-Immunoprecipitation Kit); antibody used for this IP not told
[3] = target: ALK (human (endogenous in MCF7 and MDA-MB-231)) (UniProt Q9UM73); test: co-IP; competitive co-IP: lysates of stably transfected MCF7 and MDA-MB-231 cells with or without TC2N overexpression, IP with p55γ or ALK antibodies, WB with ALK or p55γ antibodies; normal IgG as negative control

- binding [1]: binds
Substance: ALK (from UniProt Q9UM73 19-1620) (receptor)

- binding [2]: binds
Substance: TC2N (from UniProt Q8N9U0 1-490)

- binding [3]: binds
Substance: p55γ subunit of PI3K (from UniProt Q92569 1-461)
